Data on one molecule can be found in paper PMC13193388, “Dimerization‐dependent NOTCH receptor transactivation unveils a class of highly selective NOTCH signalling inhibitors” (The Febs Journal, 2025).

Chains of the proteins cited; added tags and fusions are not shown. Residues count along the entry.
UniProt Q9UM47, residues 40-2321: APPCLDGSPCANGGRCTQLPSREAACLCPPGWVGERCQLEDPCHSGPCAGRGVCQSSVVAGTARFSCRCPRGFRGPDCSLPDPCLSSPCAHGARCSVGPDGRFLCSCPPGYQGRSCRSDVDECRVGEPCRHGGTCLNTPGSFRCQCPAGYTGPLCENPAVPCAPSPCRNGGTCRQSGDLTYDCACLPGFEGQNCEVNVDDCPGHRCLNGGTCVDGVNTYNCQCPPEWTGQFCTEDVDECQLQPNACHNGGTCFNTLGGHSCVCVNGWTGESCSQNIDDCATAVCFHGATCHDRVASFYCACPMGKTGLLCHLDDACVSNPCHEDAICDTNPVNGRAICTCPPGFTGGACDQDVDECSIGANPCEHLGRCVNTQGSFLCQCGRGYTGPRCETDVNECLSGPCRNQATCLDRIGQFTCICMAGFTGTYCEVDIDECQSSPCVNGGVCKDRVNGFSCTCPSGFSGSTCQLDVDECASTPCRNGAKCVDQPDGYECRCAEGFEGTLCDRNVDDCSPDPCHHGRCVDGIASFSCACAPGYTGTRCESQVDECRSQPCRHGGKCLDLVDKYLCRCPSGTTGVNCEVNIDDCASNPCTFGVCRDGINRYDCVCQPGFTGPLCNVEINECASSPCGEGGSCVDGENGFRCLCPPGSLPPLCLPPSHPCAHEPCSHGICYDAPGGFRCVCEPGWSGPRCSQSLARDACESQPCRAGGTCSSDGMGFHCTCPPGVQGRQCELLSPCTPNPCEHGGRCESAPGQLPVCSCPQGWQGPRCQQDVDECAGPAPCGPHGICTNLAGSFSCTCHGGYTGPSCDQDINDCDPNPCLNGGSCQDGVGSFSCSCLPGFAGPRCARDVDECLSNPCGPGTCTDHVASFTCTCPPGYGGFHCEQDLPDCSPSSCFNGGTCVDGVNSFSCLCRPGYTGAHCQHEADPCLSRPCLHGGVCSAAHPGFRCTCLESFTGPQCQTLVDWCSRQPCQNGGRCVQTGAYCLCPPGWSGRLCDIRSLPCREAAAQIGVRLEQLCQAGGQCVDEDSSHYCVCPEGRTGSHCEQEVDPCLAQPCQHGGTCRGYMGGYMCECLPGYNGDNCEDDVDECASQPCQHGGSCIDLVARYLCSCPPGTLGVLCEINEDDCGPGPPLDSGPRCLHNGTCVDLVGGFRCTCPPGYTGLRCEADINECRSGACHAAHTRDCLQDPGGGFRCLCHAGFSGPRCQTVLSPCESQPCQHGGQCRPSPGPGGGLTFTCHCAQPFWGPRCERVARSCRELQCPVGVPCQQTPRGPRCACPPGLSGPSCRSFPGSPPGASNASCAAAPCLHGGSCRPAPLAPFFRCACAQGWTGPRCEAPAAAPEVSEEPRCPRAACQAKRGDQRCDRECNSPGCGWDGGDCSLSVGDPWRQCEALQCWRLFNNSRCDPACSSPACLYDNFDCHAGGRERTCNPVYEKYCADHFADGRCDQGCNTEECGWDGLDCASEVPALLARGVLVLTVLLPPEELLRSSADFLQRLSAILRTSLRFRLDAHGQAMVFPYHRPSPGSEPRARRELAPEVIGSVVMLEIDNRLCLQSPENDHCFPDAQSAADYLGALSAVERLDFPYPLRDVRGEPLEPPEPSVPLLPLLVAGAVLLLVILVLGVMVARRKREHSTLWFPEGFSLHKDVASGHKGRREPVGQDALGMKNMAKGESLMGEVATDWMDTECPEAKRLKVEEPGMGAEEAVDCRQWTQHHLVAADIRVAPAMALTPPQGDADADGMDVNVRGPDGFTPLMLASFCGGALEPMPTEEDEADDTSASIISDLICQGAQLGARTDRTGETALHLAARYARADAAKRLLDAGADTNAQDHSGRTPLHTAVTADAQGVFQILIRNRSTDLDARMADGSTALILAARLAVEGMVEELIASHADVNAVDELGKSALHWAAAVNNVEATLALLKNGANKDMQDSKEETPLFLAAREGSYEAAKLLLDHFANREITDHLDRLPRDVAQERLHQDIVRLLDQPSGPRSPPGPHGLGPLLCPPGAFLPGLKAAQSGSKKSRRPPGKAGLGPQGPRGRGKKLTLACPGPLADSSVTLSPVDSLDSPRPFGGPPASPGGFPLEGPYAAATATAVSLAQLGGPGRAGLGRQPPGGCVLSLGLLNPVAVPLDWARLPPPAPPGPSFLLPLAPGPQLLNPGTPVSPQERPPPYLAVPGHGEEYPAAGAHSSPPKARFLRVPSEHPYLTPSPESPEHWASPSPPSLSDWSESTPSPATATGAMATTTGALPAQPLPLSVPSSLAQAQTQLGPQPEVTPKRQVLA

These are yes or no findings as the source states them, for the method shown. Binding seen in cells or lysates may run through a third protein. Some binding calls cover weakened binding; strength is not graded here.

The target of this experiment is HA epitope-tagged full-length NOTCH3 (human) (UniProt Q9UM47). Kind of experiment: cross-linking + co-IP; cell surface ligand–receptor binding assay: 293T cells stably expressing HA epitope-tagged receptor incubated with HIS epitope-tagged ligand 1 h at 4 °C, with or without peptides (10 μM), cross-linked with DSS and BS3, lysed, HA immunoprecipitation, Western blot; only the binder purified. On the technique in general: In western blotting, separated proteins are transferred to a membrane and probed.

On to EKYCADHFADGR [N34 peptide], for which the binding entry is “binds”.
